Among the data in article PMC6214653 are binding values, retold here.

These are yes or no findings as the source states them, for the method shown. For some of these results: Binding can be weak; no strength is given. For some of these results: In cells and extracts the contact can be indirect. For some of these results: Sequences can lack the tags named with a protein.

The target of test [1] is FLAG-TET1 CD ΔC45 (mouse). As to the kind of experiment: co-IP; FLAG IP (anti-FLAG M2 magnetic beads, 4°C) from lysates of HEK293T cells co-expressing FLAG-TET1 CD constructs and His-OGT constructs; 50 mM Tris pH 8, 200 mM NaCl, 1% NP40; western blot for FLAG and OGT or His. A general note: In western blotting, separated proteins are transferred to a membrane and probed.
The target in test [2] is FLAG-tagged mouse TET1 catalytic domain (aa1367-2039) (mouse). Described as above.
Test [3] deals with recombinant mouse TET1 catalytic domain (aa1367-2039), wild type (mouse). As to the kind of experiment: pull-down; 2.5 µM rOGT and 2.5 µM rTET1 CD pre-incubated 15 min at room temperature in 50 mM Tris pH 7.5, 100 mM NaCl, 0.02% Tween-20, no UDP-GlcNAc; captured on TET1 antibody bound to Protein G Dynabeads; Coomassie stain; both purified.
The target of test [4] is recombinant mouse TET1 catalytic domain (aa1367-2039), D2018A (mouse). Described as above.
In test [5] the target is endogenous full length TET1 with C-terminal 3xFLAG tag, D2018A (D2018A mESCs) (mouse (endogenous in LF2 mESCs)). As to the kind of experiment: co-IP; FLAG IP from WT and D2018A mESCs (TET1-3xFLAG from the endogenous locus); western blot for FLAG and OGT.
Test [6] deals with FLAG-TET1 CD ΔC45 (mouse). As to the kind of experiment: co-IP; FLAG IP (anti-FLAG M2 magnetic beads, 4°C) from lysates of HEK293T cells overexpressing only FLAG-TET1 CD constructs; endogenous OGT detected by western blot.
Test [7] addresses FLAG-tagged mouse TET1 catalytic domain (aa1367-2039) (mouse). The test is described as above.

B1: His-tagged human OGT (enzyme, UniProt O15294 1-1046)
chain: MASSVGNVADSTEPTKRMLSFQGLAELAHREYQAGDFEAAERHCMQLWRQEPDNTGVLLLLSSIHFQCRRLDRSAHFSTLAIKQNPLLAEAYSNLGNVYKERGQLQEAIEHYRHALRLKPDFIDGYINLAAALVAAGDMEGAVQAYVSALQYNPDLYCVRSDLGNLLKALGRLEEAKACYLKAIETQPNFAVAWSNLGCVFNAQGEIWLAIHHFEKAVTLDPNFLDAYINLGNVLKEARIFDRAVAAYLRALSLSPNHAVVHGNLACVYYEQGLIDLAIDTYRRAIELQPHFPDAYCNLANALKEKGSVAEAEDCYNTALRLCPTHADSLNNLANIKREQGNIEEAVRLYRKALEVFPEFAAAHSNLASVLQQQGKLQEALMHYKEAIRISPTFADAYSNMGNTLKEMQDVQGALQCYTRAIQINPAFADAHSNLASIHKDSGNIPEAIASYRTALKLKPDFPDAYCNLAHCLQIVCDWTDYDERMKKLVSIVADQLEKNRLPSVHPHHSMLYPLSHGFRKAIAERHGNLCLDKINVLHKPPYEHPKDLKLSDGRLRVGYVSSDFGNHPTSHLMQSIPGMHNPDKFEVFCYALSPDDGTNFRVKVMAEANHFIDLSQIPCNGKAADRIHQDGIHILVNMNGYTKGARNELFALRPAPIQAMWLGYPGTSGALFMDYIITDQETSPAEVAEQYSEKLAYMPHTFFIGDHANMFPHLKKKAVIDFKSNGHIYDNRIVLNGIDLKAFLDSLPDVKIVKMKCPDGGDNADSSNTALNMPVIPMNTIAEAVIEMINRGQIQITINGFSISNGLATTQINNKAATGEEVPRTIIVTTRSQYGLPEDAIVYCNFNQLYKIDPSTLQMWANILKRVPNSVLWLLRFPAVGEPNIQQYAQNMGLPQNRIIFSPVAPKEEHVRRGQLADVCLDTPLCNGHTTGMDVLWAGTPMVTMPGETLASRVAASQLTCLGCLELIAKNRQEYEDIAVKLGTDLEYLKKVRGKVWKQRISSPLFNTKQYTMELERLYLQMWEHYAAGNKPDHMIKPVEVTESA
Regarding B1, the binding result in test [1] is recorded as “no binding”; in test [2], “binds”.

B2: recombinant human OGT (rOGT) (enzyme, UniProt O15294 1-1046)
chain: MASSVGNVADSTEPTKRMLSFQGLAELAHREYQAGDFEAAERHCMQLWRQEPDNTGVLLLLSSIHFQCRRLDRSAHFSTLAIKQNPLLAEAYSNLGNVYKERGQLQEAIEHYRHALRLKPDFIDGYINLAAALVAAGDMEGAVQAYVSALQYNPDLYCVRSDLGNLLKALGRLEEAKACYLKAIETQPNFAVAWSNLGCVFNAQGEIWLAIHHFEKAVTLDPNFLDAYINLGNVLKEARIFDRAVAAYLRALSLSPNHAVVHGNLACVYYEQGLIDLAIDTYRRAIELQPHFPDAYCNLANALKEKGSVAEAEDCYNTALRLCPTHADSLNNLANIKREQGNIEEAVRLYRKALEVFPEFAAAHSNLASVLQQQGKLQEALMHYKEAIRISPTFADAYSNMGNTLKEMQDVQGALQCYTRAIQINPAFADAHSNLASIHKDSGNIPEAIASYRTALKLKPDFPDAYCNLAHCLQIVCDWTDYDERMKKLVSIVADQLEKNRLPSVHPHHSMLYPLSHGFRKAIAERHGNLCLDKINVLHKPPYEHPKDLKLSDGRLRVGYVSSDFGNHPTSHLMQSIPGMHNPDKFEVFCYALSPDDGTNFRVKVMAEANHFIDLSQIPCNGKAADRIHQDGIHILVNMNGYTKGARNELFALRPAPIQAMWLGYPGTSGALFMDYIITDQETSPAEVAEQYSEKLAYMPHTFFIGDHANMFPHLKKKAVIDFKSNGHIYDNRIVLNGIDLKAFLDSLPDVKIVKMKCPDGGDNADSSNTALNMPVIPMNTIAEAVIEMINRGQIQITINGFSISNGLATTQINNKAATGEEVPRTIIVTTRSQYGLPEDAIVYCNFNQLYKIDPSTLQMWANILKRVPNSVLWLLRFPAVGEPNIQQYAQNMGLPQNRIIFSPVAPKEEHVRRGQLADVCLDTPLCNGHTTGMDVLWAGTPMVTMPGETLASRVAASQLTCLGCLELIAKNRQEYEDIAVKLGTDLEYLKKVRGKVWKQRISSPLFNTKQYTMELERLYLQMWEHYAAGNKPDHMIKPVEVTESA
In the case of B2, the binding result in test [3] is “binds”; in test [4], “no binding (tested: 2.5 µM)”.

B3: endogenous OGT of mouse embryonic stem cells (enzyme, UniProt Q8CGY8 1-1046)
chain: MASSVGNVADSTEPTKRMLSFQGLAELAHREYQAGDFEAAERHCMQLWRQEPDNTGVLLLLSSIHFQCRRLDRSAHFSTLAIKQNPLLAEAYSNLGNVYKERGQLQEAIEHYRHALRLKPDFIDGYINLAAALVAAGDMEGAVQAYVSALQYNPDLYCVRSDLGNLLKALGRLEEAKACYLKAIETQPNFAVAWSNLGCVFNAQGEIWLAIHHFEKAVTLDPNFLDAYINLGNVLKEARIFDRAVAAYLRALSLSPNHAVVHGNLACVYYEQGLIDLAIDTYRRAIELQPHFPDAYCNLANALKEKGSVAEAEDCYNTALRLCPTHADSLNNLANIKREQGNIEEAVRLYRKALEVFPEFAAAHSNLASVLQQQGKLQEALMHYKEAIRISPTFADAYSNMGNTLKEMQDVQGALQCYTRAIQINPAFADAHSNLASIHKDSGNIPEAIASYRTALKLKPDFPDAYCNLAHCLQIVCDWTDYDERMKKLVSIVAEQLEKNRLPSVHPHHSMLYPLSHGFRKAIAERHGNLCLDKINVLHKPPYEHPKDLKLSDGRLRVGYVSSDFGNHPTSHLMQSIPGMHNPDKFEVFCYALSPDDGTNFRVKVMAEANHFIDLSQIPCNGKAADRIHQDGIHILVNMNGYTKGARNELFALRPAPIQAMWLGYPGTSGALFMDYIITDQETSPAEVAEQYSEKLAYMPHTFFIGDHANMFPHLKKKAVIDFKSNGHIYDNRIVLNGIDLKAFLDSLPDVKIVKMKCPDGGDNPDSSNTALNMPVIPMNTIAEAVIEMINRGQIQITINGFSISNGLATTQINNKAATGEEVPRTIIVTTRSQYGLPEDAIVYCNFNQLYKIDPSTLQMWANILKRVPNSVLWLLRFPAVGEPNIQQYAQNMGLPQNRIIFSPVAPKEEHVRRGQLADVCLDTPLCNGHTTGMDVLWAGTPMVTMPGETLASRVAASQLTCLGCLELIAKSRQEYEDIAVKLGTDLEYLKKIRGKVWKQRISSPLFNTKQYTMELERLYLQMWEHYAAGNKPDHMIKPVEVTESA
In the case of B3, in test [5], the binding entry is on record as “binds”.

B4: endogenous OGT of HEK293T cells (enzyme, UniProt O15294 1-1046)
chain: MASSVGNVADSTEPTKRMLSFQGLAELAHREYQAGDFEAAERHCMQLWRQEPDNTGVLLLLSSIHFQCRRLDRSAHFSTLAIKQNPLLAEAYSNLGNVYKERGQLQEAIEHYRHALRLKPDFIDGYINLAAALVAAGDMEGAVQAYVSALQYNPDLYCVRSDLGNLLKALGRLEEAKACYLKAIETQPNFAVAWSNLGCVFNAQGEIWLAIHHFEKAVTLDPNFLDAYINLGNVLKEARIFDRAVAAYLRALSLSPNHAVVHGNLACVYYEQGLIDLAIDTYRRAIELQPHFPDAYCNLANALKEKGSVAEAEDCYNTALRLCPTHADSLNNLANIKREQGNIEEAVRLYRKALEVFPEFAAAHSNLASVLQQQGKLQEALMHYKEAIRISPTFADAYSNMGNTLKEMQDVQGALQCYTRAIQINPAFADAHSNLASIHKDSGNIPEAIASYRTALKLKPDFPDAYCNLAHCLQIVCDWTDYDERMKKLVSIVADQLEKNRLPSVHPHHSMLYPLSHGFRKAIAERHGNLCLDKINVLHKPPYEHPKDLKLSDGRLRVGYVSSDFGNHPTSHLMQSIPGMHNPDKFEVFCYALSPDDGTNFRVKVMAEANHFIDLSQIPCNGKAADRIHQDGIHILVNMNGYTKGARNELFALRPAPIQAMWLGYPGTSGALFMDYIITDQETSPAEVAEQYSEKLAYMPHTFFIGDHANMFPHLKKKAVIDFKSNGHIYDNRIVLNGIDLKAFLDSLPDVKIVKMKCPDGGDNADSSNTALNMPVIPMNTIAEAVIEMINRGQIQITINGFSISNGLATTQINNKAATGEEVPRTIIVTTRSQYGLPEDAIVYCNFNQLYKIDPSTLQMWANILKRVPNSVLWLLRFPAVGEPNIQQYAQNMGLPQNRIIFSPVAPKEEHVRRGQLADVCLDTPLCNGHTTGMDVLWAGTPMVTMPGETLASRVAASQLTCLGCLELIAKNRQEYEDIAVKLGTDLEYLKKVRGKVWKQRISSPLFNTKQYTMELERLYLQMWEHYAAGNKPDHMIKPVEVTESA
On to B4, for which the binding entry in test [6] is “no binding”; in test [7] it was “binds”.
